Assay results from the supplement of paper PMC10849652.
This is one part of the list.

Amino acid sequences for entries named in this document (tags omitted). A change or cut given only in a name is not applied to a line headed by its entry.
UniProt P35998: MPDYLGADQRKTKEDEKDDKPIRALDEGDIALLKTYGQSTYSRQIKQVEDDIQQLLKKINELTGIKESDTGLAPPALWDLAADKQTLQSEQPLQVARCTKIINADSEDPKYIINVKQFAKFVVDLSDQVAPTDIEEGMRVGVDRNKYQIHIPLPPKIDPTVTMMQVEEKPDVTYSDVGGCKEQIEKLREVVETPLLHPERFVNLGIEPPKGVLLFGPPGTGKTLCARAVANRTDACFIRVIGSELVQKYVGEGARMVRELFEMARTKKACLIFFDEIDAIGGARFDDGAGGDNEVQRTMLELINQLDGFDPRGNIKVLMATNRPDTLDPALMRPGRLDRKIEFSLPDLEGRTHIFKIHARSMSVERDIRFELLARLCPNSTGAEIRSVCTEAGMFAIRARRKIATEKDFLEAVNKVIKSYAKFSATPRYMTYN
UniProt O14818: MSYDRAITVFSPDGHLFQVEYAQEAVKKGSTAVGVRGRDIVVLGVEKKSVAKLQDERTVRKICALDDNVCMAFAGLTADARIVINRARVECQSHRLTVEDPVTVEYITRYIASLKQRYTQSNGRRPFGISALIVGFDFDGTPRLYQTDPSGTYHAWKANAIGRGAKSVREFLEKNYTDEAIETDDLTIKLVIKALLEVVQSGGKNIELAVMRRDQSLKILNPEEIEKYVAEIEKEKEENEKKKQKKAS
UniProt Q92932: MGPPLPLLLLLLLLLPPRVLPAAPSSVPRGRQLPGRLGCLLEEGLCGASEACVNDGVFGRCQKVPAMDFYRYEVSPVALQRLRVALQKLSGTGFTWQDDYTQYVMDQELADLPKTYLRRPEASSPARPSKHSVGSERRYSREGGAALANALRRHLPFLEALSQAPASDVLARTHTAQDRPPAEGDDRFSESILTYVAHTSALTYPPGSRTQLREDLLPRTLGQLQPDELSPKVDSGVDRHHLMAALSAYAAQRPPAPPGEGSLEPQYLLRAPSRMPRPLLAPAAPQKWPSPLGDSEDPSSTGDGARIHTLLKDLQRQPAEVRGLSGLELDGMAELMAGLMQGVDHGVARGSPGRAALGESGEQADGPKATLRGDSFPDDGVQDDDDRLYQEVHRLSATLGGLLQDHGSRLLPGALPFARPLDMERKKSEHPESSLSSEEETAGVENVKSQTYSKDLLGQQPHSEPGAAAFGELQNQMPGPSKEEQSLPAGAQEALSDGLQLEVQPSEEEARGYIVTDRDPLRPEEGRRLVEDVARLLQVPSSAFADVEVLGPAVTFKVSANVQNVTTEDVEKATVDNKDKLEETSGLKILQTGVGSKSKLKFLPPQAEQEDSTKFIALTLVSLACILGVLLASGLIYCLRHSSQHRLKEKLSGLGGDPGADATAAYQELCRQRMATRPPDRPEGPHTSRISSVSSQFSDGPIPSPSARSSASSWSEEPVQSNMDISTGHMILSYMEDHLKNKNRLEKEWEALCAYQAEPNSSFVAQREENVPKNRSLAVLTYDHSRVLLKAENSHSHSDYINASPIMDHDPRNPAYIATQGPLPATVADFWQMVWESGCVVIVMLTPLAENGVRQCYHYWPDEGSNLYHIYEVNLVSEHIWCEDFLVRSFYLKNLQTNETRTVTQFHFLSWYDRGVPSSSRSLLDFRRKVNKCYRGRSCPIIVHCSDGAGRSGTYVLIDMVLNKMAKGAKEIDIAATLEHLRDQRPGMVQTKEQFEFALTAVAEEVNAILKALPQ
UniProt Q9P2W1: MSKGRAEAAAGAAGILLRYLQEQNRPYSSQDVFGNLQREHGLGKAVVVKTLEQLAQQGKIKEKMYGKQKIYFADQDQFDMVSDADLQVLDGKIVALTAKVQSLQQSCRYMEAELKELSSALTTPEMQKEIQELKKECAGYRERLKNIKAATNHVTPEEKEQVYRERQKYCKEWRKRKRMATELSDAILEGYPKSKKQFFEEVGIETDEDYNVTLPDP
UniProt Q9NYI0: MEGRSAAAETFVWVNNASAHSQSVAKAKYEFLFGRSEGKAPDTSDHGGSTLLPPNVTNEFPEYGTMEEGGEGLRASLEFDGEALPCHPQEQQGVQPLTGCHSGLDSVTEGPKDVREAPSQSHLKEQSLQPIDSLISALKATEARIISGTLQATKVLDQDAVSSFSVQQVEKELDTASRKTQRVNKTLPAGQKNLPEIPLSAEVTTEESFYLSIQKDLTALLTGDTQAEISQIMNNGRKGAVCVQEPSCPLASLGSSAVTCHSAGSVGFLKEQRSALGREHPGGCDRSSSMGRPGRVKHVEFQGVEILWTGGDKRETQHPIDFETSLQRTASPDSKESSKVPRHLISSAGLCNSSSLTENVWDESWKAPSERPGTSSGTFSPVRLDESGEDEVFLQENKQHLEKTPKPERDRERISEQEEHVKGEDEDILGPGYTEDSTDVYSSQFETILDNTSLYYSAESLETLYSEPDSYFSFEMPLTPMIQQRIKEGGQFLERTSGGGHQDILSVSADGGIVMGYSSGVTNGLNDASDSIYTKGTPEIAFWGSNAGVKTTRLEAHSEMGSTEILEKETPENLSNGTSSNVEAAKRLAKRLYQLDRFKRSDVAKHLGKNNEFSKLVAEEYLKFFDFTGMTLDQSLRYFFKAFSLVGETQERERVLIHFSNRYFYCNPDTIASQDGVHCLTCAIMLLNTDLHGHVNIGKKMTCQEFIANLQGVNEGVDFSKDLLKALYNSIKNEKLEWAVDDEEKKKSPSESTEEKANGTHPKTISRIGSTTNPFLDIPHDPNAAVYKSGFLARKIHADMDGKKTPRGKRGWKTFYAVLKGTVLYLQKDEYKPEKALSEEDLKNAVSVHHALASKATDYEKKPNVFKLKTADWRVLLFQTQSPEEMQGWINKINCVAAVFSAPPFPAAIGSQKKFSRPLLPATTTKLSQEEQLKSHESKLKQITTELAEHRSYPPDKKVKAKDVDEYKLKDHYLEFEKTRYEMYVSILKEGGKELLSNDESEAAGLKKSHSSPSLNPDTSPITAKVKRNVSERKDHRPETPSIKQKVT
UniProt O75365, whole entry, looked up: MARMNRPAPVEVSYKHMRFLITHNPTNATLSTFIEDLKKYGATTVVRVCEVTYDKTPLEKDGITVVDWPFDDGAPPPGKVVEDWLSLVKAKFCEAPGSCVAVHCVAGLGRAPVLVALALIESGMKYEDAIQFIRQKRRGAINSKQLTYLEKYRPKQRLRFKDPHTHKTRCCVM
UniProt Q8WUY3: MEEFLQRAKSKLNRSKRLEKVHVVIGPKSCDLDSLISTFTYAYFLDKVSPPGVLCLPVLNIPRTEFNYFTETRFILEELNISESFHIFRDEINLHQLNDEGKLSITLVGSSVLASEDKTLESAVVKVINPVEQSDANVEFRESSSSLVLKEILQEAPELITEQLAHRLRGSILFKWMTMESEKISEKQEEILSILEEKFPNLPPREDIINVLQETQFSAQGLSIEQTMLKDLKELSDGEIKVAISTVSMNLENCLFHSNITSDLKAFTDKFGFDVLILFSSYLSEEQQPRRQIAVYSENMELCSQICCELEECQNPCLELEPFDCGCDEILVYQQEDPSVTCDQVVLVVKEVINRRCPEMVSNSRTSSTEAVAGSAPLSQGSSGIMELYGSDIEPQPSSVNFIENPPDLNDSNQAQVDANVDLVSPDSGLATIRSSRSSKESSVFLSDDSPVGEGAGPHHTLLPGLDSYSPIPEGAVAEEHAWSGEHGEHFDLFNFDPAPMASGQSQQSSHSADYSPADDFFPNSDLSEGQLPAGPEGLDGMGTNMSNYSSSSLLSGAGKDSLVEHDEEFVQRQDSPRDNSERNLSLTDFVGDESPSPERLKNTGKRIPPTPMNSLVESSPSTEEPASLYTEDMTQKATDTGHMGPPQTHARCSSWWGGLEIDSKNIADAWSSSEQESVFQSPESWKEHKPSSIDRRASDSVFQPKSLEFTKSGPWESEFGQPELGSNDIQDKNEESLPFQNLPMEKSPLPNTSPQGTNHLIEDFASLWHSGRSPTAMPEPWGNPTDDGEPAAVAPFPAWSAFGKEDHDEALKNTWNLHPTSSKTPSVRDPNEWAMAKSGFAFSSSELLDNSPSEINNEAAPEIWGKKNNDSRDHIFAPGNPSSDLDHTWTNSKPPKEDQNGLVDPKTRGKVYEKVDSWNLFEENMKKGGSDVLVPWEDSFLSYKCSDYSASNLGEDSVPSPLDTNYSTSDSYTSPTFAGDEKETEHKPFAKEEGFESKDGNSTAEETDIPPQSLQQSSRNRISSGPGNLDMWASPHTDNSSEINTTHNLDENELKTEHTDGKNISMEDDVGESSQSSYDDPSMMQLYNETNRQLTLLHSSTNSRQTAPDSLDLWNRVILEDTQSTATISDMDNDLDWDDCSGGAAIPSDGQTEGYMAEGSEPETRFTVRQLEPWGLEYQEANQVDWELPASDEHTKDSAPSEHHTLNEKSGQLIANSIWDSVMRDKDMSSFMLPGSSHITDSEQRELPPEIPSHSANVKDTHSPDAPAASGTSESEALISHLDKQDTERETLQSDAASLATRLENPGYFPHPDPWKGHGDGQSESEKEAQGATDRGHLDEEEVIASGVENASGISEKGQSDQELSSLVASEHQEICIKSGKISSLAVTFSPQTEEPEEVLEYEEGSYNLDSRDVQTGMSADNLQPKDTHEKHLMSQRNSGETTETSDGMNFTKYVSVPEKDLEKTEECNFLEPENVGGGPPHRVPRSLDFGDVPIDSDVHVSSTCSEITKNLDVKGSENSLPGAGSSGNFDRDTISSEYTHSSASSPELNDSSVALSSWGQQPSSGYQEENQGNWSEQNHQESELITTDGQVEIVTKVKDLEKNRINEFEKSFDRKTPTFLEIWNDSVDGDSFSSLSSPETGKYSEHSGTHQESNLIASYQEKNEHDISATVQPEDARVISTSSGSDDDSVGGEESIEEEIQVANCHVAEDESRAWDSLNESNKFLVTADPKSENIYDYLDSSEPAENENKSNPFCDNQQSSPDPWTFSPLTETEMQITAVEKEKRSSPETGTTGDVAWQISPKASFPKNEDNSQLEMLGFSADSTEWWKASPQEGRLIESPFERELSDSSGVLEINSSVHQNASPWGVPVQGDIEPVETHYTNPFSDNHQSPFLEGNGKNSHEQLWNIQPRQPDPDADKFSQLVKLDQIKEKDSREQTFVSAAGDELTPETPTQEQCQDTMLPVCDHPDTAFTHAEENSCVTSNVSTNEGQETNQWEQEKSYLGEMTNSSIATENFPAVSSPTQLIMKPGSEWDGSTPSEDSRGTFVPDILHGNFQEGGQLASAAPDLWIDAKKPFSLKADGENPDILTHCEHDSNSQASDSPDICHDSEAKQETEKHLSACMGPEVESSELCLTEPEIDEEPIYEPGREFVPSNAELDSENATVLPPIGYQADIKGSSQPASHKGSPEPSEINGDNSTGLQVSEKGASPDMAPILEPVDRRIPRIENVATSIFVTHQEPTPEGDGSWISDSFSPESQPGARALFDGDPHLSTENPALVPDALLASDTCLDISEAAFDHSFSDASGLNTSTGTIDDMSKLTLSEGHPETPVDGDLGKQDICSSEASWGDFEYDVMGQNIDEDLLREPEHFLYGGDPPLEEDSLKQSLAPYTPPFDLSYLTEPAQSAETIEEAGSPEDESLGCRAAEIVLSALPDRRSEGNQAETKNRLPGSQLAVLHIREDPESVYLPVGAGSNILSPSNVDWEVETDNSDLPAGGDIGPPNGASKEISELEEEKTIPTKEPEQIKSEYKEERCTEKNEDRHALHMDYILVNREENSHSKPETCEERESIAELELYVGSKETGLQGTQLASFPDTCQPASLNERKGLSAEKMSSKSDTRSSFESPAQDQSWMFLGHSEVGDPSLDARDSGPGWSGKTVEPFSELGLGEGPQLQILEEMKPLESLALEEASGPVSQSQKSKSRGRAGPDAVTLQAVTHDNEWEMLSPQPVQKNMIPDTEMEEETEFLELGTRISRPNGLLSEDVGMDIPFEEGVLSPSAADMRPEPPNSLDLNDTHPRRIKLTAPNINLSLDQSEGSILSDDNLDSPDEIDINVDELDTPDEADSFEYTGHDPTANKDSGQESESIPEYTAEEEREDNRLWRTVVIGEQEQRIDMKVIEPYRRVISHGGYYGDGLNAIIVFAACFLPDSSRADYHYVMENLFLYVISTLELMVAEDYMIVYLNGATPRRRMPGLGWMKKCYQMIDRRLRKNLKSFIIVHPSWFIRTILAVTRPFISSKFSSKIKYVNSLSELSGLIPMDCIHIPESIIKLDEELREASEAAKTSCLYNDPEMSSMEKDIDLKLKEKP
UniProt P40306: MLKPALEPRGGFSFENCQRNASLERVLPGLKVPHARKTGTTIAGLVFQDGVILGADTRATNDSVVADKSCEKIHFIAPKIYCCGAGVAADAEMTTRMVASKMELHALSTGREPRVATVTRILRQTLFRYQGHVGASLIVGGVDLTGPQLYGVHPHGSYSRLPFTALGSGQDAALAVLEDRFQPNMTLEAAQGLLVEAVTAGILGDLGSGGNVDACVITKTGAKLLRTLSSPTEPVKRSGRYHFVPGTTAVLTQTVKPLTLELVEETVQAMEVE

Legend:
Experiment in all cases: log2 fold change, soluble protein after heating vs DMSO (PISA); higher = thermal stabilisation; K562 cells, 10 uM, 30 min; active = over 0.2 and 3.5 SD of the protein, either way, in both replicates (recomputed)
[1] = compound: C1=CC=C(C=C1)[C@H](COC2=CC3=C(C=C2)NC(=O)N3)NC(=O)C4=CC=CN(C4=O)CC5=CC(=C(C=C5)F)F
In short: (§1)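 K562 cells at 2×10^6 cells/mL were exposed to 10 μM compound for 30 min, then aliquots were heated for 3 min across 48°C-58°C, pooled, and extracted in PBS containing 0.5% NP-40 at 4°C. The supernatant after 21,000xg for 90 min was taken as soluble protein and measured by TMTpro 16plex LC-MS/MS with channel sums equalised. Thermal stability is reported relative to control samples, with values from duplicates. Fold changes are given on a log2 scale.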

[2] = compound: CC1=C(SC2=C1C(=N[C@H](C3=NN=C(N32)C)CC(=O)N)C4=CC=C(C=C4)Cl)C
In short: as §1

[3] = compound: CC1=C2C(=CC=C1)N=C(N(C2=O)C3=CC=CC=C3C)CN4C=NC5=C(N=CN=C54)N
In short: as §1

[4] = compound: Cc1sc2c(c1C)C(c1ccc(Cl)cc1)=N[C@@H](CC(=O)OC(C)(C)C)c1nnc(C)n1-2
In short: as §1

[5] = compound: c1ccc([C@@H]2C[C@H]2NC2CCNCC2)cc1
In short: as §1

Measured: log2 fold change

PVR (UniProt P15151)
inactive: [1] 0.009 | [2] 0.102 | [3] 0.007 | [4] -0.008 | [5] -0.004

PWP1 (UniProt Q13610)
inactive: [1] 0.118 | [2] -0.348 | [3] -0.269 | [4] 0.23 | [5] 0.009

PSMC2 (UniProt P35998)
inactive: [1] 0.031 | [2] -0.085 | [3] -0.092 | [4] 0.002 | [5] 0.001

PSMC6 (UniProt P62333)
inactive: [1] 0.04 | [2] -0.087 | [3] -0.037 | [4] 0.017 | [5] 0.006

PYGL (UniProt P06737)
inactive: [1] 0.006 | [2] 0.047 | [3] 0.026 | [4] 0.006 | [5] -0.032

PSMA5 (UniProt P28066)
inactive: [1] 0.037 | [2] -0.001 | [3] -0.027 | [4] 0.011 | [5] 0.029

PSMA7 (UniProt O14818)
inactive: [1] 0.04 | [2] -0.032 | [3] -0.062 | [4] 0.006 | [5] -0.028

PYCR3 (UniProt Q53H96)
inactive: [1] -0.035 | [2] 0.053 | [3] -0.021 | [4] 0.002 | [5] -0.009

PTK7 isoform 6 (UniProt Q13308)
inactive: [1] -0.032 | [2] 0.092 | [3] -0.005 | [4] 0.061 | [5] 0.051

PTPRN2 isoform 3 (UniProt Q92932)
inactive: [1] -0.117 | [2] -0.164 | [5] -0.183

PSMD8 (UniProt K7ERW6)
inactive: [3] 0.2 | [4] 0.03

PSMC1 (UniProt G3V4X1)
inactive: [2] -0.021 | [5] 0.112

PSMC3 (UniProt E9PLG2)
inactive: [1] 0.03 | [3] -0.056 | [4] 0.252

PSMB9 (UniProt P28065)
inactive: [1] 0.182 | [2] 0.138 | [3] 0.179 | [5] -0.203

PSIP1 (UniProt V9GYT7)
inactive: [2] -0.045 | [4] 0.121 | [5] 0.146

PUM1 (UniProt Q14671)
inactive: [2] 0.116 | [4] 0.059 | [5] -0.094

PSMC3IP (UniProt Q9P2W1)
inactive: [1] -0.003 | [2] 0.108 | [3] 0.184 | [4] 0.142 | [5] 0.097

PUM2 isoform 3 (UniProt Q8TB72)
inactive: [2] 0.086 | [5] -0.107

R3HCC1 (UniProt Q9Y3T6)
inactive: [2] -0.001 | [3] -0.115 | [4] 0.017 | [5] 0.248

PSMD8 (UniProt K7EK21)
inactive: [2] -0.11 | [5] 0.188

R3HCC1L (UniProt Q7Z5L2)
inactive: [2] -0.107 | [3] 0.002 | [4] 0.287 | [5] 0.114

PSD3 (UniProt Q9NYI0)
inactive: [2] 0.045 | [3] 0.052 | [5] -0.028

PSMD4 (UniProt Q5VWC4)
inactive: [1] -0.088 | [2] -0.079 | [3] -0.016 | [5] 0.056

PTP4A3 (UniProt O75365)
inactive: [1] 0.037 | [3] 0.391

PTRH1 (UniProt Q86Y79)
inactive: [2] -0.078 | [5] -0.004

PTPN7 isoform 3 (UniProt P35236)
inactive: [2] -0.077 | [3] 0.029 | [5] -0.137

PSMB8 (UniProt P28062)
inactive: [2] -0.044 | [5] 0.062

PSMB5 isoform 3 (UniProt P28074)
inactive: [1] 0.063 | [3] 0.209 | [4] 0.011

PSD4 (UniProt Q8NDX1)
inactive: [2] -0.072 | [3] 0.013 | [4] 0.034 | [5] -0.02

PYGO2 (UniProt Q9BRQ0)
inactive: [1] 0.005 | [3] -0.21

PSD2 (UniProt Q9BQI7)
inactive: [3] 0.366

QKI (UniProt Q96PU8)
inactive: [1] -0.016 | [2] 0.039 | [3] 0.105 | [4] -0.082 | [5] 0.01

PYCR1 (UniProt J3QKT4)
inactive: [1] 0.219 | [3] -0.073 | [4] -0.072

10 neighbouring entries out of the list so far, quoted:
PSMA7 (UniProt O14818)
inactive: [1] 0.04 | [2] -0.032 | [3] -0.062 | [4] 0.006 | [5] -0.028

PYCR3 (UniProt Q53H96)
inactive: [1] -0.035 | [2] 0.053 | [3] -0.021 | [4] 0.002 | [5] -0.009

PTK7 isoform 6 (UniProt Q13308)
inactive: [1] -0.032 | [2] 0.092 | [3] -0.005 | [4] 0.061 | [5] 0.051

PTPRN2 isoform 3 (UniProt Q92932)
inactive: [1] -0.117 | [2] -0.164 | [5] -0.183

PSMD8 (UniProt K7ERW6)
inactive: [3] 0.2 | [4] 0.03

PSMC1 (UniProt G3V4X1)
inactive: [2] -0.021 | [5] 0.112

PSMC3 (UniProt E9PLG2)
inactive: [1] 0.03 | [3] -0.056 | [4] 0.252

PSMB9 (UniProt P28065)
inactive: [1] 0.182 | [2] 0.138 | [3] 0.179 | [5] -0.203

PSIP1 (UniProt V9GYT7)
inactive: [2] -0.045 | [4] 0.121 | [5] 0.146

PUM1 (UniProt Q14671)
inactive: [2] 0.116 | [4] 0.059 | [5] -0.094

(cont.)

PUSL1 (UniProt Q8N0Z8)
inactive: [2] -0.294 | [4] 0.186 | [5] 0.178

PRUNE2 isoform 3 (UniProt Q8WUY3)
inactive: [3] -0.113

PSMA3 (UniProt G3V4X5)
inactive: [1] -0.073 | [3] 0.147

PSMB2, A0A087WVV1
inactive: [1] -0.104 | [3] 0.054

PSMA4 (UniProt P25789)
inactive: [1] 0.019 | [2] -0.039 | [3] -0.057 | [4] 0.005 | [5] 0.049

PSMA3 (UniProt H0YJ03)
inactive: [2] 0.193 | [3] 0.119 | [4] 0.048 | [5] 0.034

PTPRS (UniProt Q13332)
inactive: [1] -0.046 | [3] -0.067

PSMB10 (UniProt P40306)
inactive: [3] 0.016

PYCR1 isoform 3 (UniProt P32322)
inactive: [1] 0.031 | [2] 0.025 | [4] -0.002
